These are yes or no findings as the source states them, for the method shown. Binding seen in cells or lysates may run through a third protein. Some results given as binding are weak or reduced against the parent protein; the word gives no strength.
Target: T1, RIG-I (mouse (endogenous in Raw264.7)) (UniProt Q6Q899)
T1 sequence: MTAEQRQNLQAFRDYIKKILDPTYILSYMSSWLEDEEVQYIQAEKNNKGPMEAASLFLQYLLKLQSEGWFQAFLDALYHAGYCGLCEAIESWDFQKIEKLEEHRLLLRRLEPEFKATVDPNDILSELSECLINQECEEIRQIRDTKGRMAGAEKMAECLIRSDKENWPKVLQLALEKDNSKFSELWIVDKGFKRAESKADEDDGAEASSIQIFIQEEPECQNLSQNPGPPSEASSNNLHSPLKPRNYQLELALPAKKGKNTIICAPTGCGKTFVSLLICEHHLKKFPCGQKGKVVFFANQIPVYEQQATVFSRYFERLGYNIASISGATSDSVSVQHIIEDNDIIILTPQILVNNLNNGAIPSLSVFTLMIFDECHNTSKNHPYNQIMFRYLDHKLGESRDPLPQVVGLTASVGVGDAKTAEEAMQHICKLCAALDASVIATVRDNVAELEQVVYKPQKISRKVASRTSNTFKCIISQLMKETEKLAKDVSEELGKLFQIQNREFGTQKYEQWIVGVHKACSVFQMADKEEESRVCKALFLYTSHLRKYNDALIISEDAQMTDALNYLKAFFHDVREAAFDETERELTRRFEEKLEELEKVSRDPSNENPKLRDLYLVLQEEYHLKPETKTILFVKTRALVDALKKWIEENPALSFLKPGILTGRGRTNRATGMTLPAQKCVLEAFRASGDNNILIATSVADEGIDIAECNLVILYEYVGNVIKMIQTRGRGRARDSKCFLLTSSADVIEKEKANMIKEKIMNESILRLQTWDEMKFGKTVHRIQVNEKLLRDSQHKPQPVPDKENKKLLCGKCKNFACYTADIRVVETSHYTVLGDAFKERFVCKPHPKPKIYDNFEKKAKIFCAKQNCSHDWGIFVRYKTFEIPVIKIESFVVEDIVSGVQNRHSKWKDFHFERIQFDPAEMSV
Assay: co-IP; total protein of Raw264.7 cells, control (NC) or treated with 200 uM ferrous myoglobin for 12 h, in IP lysis buffer; overnight at 4 °C with 1 ug monoclonal anti-RIG-I or anti-Caspase1 antibody and protein-A magnetic beads; blot with anti-Caspase1 or anti-RIG-I

- binding: binds
B1: caspase1 (protein, UniProt P29452 1-402)
chain: MADKILRAKRKQFINSVSIGTINGLLDELLEKRVLNQEEMDKIKLANITAMDKARDLCDHVSKKGPQASQIFITYICNEDCYLAGILELQSAPSAETFVATEDSKGGHPSSSETKEEQNKEDGTFPGLTGTLKFCPLEKAQKLWKENPSEIYPIMNTTTRTRLALIICNTEFQHLSPRVGAQVDLREMKLLLEDLGYTVKVKENLTALEMVKEVKEFAACPEHKTSDSTFLVFMSHGIQEGICGTTYSNEVSDILKVDTIFQMMNTLKCPSLKDKPKVIIIQACRGEKQGVVLLKDSVRDSEEDFLTDAIFEDDGIKKAHIEKDFIAFCSSTPDNVSWRHPVRGSLFIESLIKHMKEYAWSCDLEDIFRKVRFSFEQPEFRLQMPTADRVTLTKRFYLFPGH

Source: PMC8885737
